Source: US7271005B2, “Modulation of bacterial membrane permeability” (priority 2002, dated 2007)
At least one compound was matched to its structure with a doubt left.

What was measured:
[1] = system: P. aeruginosa PAK1-3; test: Antibiotic resistance of spontaneous neomycin-resistant mutant PAK1-3 compared with parent PAK; type: cell-based, Pseudomonas aeruginosa; details: mutant PAK1-3 versus parent strain PAK
Experimental: A mutant P. aeruginosa (PAK) strain was used to identify the pprA membrane permeability-associated gene. Spontaneous neomycin resistant mutants of PAK were selected by culturing on L-agar medium containing 200 μg/ml neomycin.

[2] = system: clinical isolates of P. aeruginosa; test: Antibiotic sensitivity of CF and non-CF blood clinical isolates; type: cell-based, Pseudomonas aeruginosa; details: 18 CF and 18 non-CF blood isolates; tetracycline 100 μg/ml
Experimental: Overexpression of the pprB gene in clinical isolates increases sensitivity to aminoglycosides. The pprB overexpresser construct was introduced into aminoglycoside-resistant clinical isolates of P. aeruginosa. 18 cystic fibrosis (CF) isolates and 18 non-CF blood isolates showing varying degrees of resistance to all aminoglycosides were randomly chosen for analysis. Since most of the strains were also resistant to carbenicillin, but sensitive to tetracycline (100 μg/ml), a tetracycline-resistant construct, pRRBTc, that expresses the pprB gene under lac promoter was used.

NC[C@H]1O[C@H](O[C@H]2[C@H](O)[C@@H](O[C@H]3O[C@H](CO)[C@@H](O)[C@H](N)[C@H]3O)[C@H](N)C[C@@H]2N)[C@H](O)[C@@H](O)[C@@H]1O [kanamycin]
change of resistance/sensitivity of PAK1-3 to the antibiotic [1]: increased resistance

CN(C)[C@@H]1C(O)=C(C(N)=O)C(=O)[C@@]2(O)C(O)=C3C(=O)c4c(O)cccc4[C@@](C)(O)[C@H]3C[C@@H]12 [tetracycline]
sensitivity of most of the clinical isolates [2]: sensitive
